{"source": "PubChem BioAssay AID493246 (Drosophila RNAi Screening Center, 2011)", "aim": "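Genes fly cells need to grow and stay alive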 (primary screen)", "cell system": "Drosophila Kc and S2R+ cells", "reagent": "long dsRNA against Drosophila genes", "measured": "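Raw, unnormalised count of remaining cells in each well; per-plate z-scores of cell number underlie the calls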", "scale": "Kc cell number and S2R+ cell number: higher = more cells remaining", "rule for the call": "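Counted as a hit if cell number falls by a z-score of at least 3 within its plate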", "note": "In all, the deposit lists about 21,000 reagents; this is a random part of those that have a named target and a result. Of all reagents, 429 (2%) are marked active. 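Values are raw and not normalised between plates; calls rest on per-plate z-scores that were not deposited.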 A number with no mark means an inactive call. No sequences are given here. Not given: the amount of reagent, the time to read-out."}
{"Target gene":"Idgf3","amplicon":"DRSC03351","Kc cell number, rep 1":1.36e6,"Kc cell number, rep 2":1.51e6,"S2R+ cell number, rep 1":1.26e6,"S2R+ cell number, rep 2":1.26e6}
{"Target gene":"CG10433","amplicon":"DRSC04068","Kc cell number, rep 1":1.39e6,"Kc cell number, rep 2":1.49e6,"S2R+ cell number, rep 1":1.24e6,"S2R+ cell number, rep 2":1.27e6}
{"Target gene":"CG7183","amplicon":"DRSC16210","Kc cell number, rep 1":1.56e6,"Kc cell number, rep 2":1.64e6,"S2R+ cell number, rep 1":1.26e6,"S2R+ cell number, rep 2":1.32e6}
{"Target gene":"CG11638","amplicon":"DRSC18167","Kc cell number, rep 1":1.53e6,"Kc cell number, rep 2":1.52e6,"S2R+ cell number, rep 1":1.05e6,"S2R+ cell number, rep 2":1.22e6}
{"Target gene":"CG11638","amplicon":"DRSC18640","Kc cell number, rep 1":1.46e6,"Kc cell number, rep 2":1.44e6,"S2R+ cell number, rep 1":1.06e6,"S2R+ cell number, rep 2":1.18e6}
{"Target gene":"CG42324","amplicon":"DRSC08431","Kc cell number, rep 1":1.41e6,"Kc cell number, rep 2":1.26e6,"S2R+ cell number, rep 1":9.30e5,"S2R+ cell number, rep 2":1.14e6}
{"Target gene":"CG42324","amplicon":"DRSC08432","Kc cell number, rep 1":1.41e6,"Kc cell number, rep 2":1.27e6,"S2R+ cell number, rep 1":9.73e5,"S2R+ cell number, rep 2":1.09e6}
{"Target gene":"SppL","amplicon":"DRSC15228","Kc cell number, rep 1":1.50e6,"Kc cell number, rep 2":1.40e6,"S2R+ cell number, rep 1":9.91e5,"S2R+ cell number, rep 2":1.06e6}
{"Target gene":"CG13339","amplicon":"DRSC06373","Kc cell number, rep 1":1.55e6,"Kc cell number, rep 2":1.59e6,"S2R+ cell number, rep 1":1.28e6,"S2R+ cell number, rep 2":1.42e6}

Next part (3 carried over from the part before).
{"Target gene":"CG42324","amplicon":"DRSC08432","Kc cell number, rep 1":1.41e6,"Kc cell number, rep 2":1.27e6,"S2R+ cell number, rep 1":9.73e5,"S2R+ cell number, rep 2":1.09e6}
{"Target gene":"SppL","amplicon":"DRSC15228","Kc cell number, rep 1":1.50e6,"Kc cell number, rep 2":1.40e6,"S2R+ cell number, rep 1":9.91e5,"S2R+ cell number, rep 2":1.06e6}
{"Target gene":"CG13339","amplicon":"DRSC06373","Kc cell number, rep 1":1.55e6,"Kc cell number, rep 2":1.59e6,"S2R+ cell number, rep 1":1.28e6,"S2R+ cell number, rep 2":1.42e6}
{"Target gene":"CG3483","amplicon":"DRSC04371","Kc cell number, rep 1":1.43e6,"Kc cell number, rep 2":1.53e6,"S2R+ cell number, rep 1":1.13e6,"S2R+ cell number, rep 2":1.24e6}
{"Target gene":"CG31068","amplicon":"DRSC13820","Kc cell number, rep 1":1.06e6,"Kc cell number, rep 2":1.22e6,"S2R+ cell number, rep 1":1.04e6,"S2R+ cell number, rep 2":1.04e6}
{"Target gene":"Grx1","amplicon":"DRSC10727","Kc cell number, rep 1":1.77e6,"Kc cell number, rep 2":1.89e6,"S2R+ cell number, rep 1":1.30e6,"S2R+ cell number, rep 2":1.42e6}
{"Target gene":"Sec5","amplicon":"DRSC00714","Kc cell number, rep 1":1.16e6,"Kc cell number, rep 2":1.26e6,"S2R+ cell number, rep 1":1.03e6,"S2R+ cell number, rep 2":9.82e5}
{"Target gene":"Tengl4","amplicon":"DRSC15620","Kc cell number, rep 1":1.65e6,"Kc cell number, rep 2":1.65e6,"S2R+ cell number, rep 1":1.37e6,"S2R+ cell number, rep 2":1.38e6}
{"Target gene":"bai","amplicon":"DRSC14388","Kc cell number, rep 1":1.46e6,"Kc cell number, rep 2":1.47e6,"S2R+ cell number, rep 1":9.75e5,"S2R+ cell number, rep 2":1.04e6}
{"Target gene":"Alp5","amplicon":"DRSC14269","Kc cell number, rep 1":1.57e6,"Kc cell number, rep 2":1.67e6,"S2R+ cell number, rep 1":1.22e6,"S2R+ cell number, rep 2":1.26e6}
{"Target gene":"CG34034","amplicon":"DRSC13506","Kc cell number, rep 1":1.44e6,"Kc cell number, rep 2":1.45e6,"S2R+ cell number, rep 1":1.03e6,"S2R+ cell number, rep 2":1.13e6}
{"Target gene":"Sgs1","amplicon":"DRSC00787","Kc cell number, rep 1":1.64e6,"Kc cell number, rep 2":1.62e6,"S2R+ cell number, rep 1":1.27e6,"S2R+ cell number, rep 2":1.38e6}
{"Target gene":"Sgs1","amplicon":"DRSC00848","Kc cell number, rep 1":1.77e6,"Kc cell number, rep 2":1.75e6,"S2R+ cell number, rep 1":1.05e6,"S2R+ cell number, rep 2":1.26e6}
{"Target gene":"CG13046","amplicon":"DRSC09927","Kc cell number, rep 1":1.53e6,"Kc cell number, rep 2":1.59e6,"S2R+ cell number, rep 1":1.36e6,"S2R+ cell number, rep 2":1.45e6}
{"Target gene":"CG13070","amplicon":"DRSC09953","Kc cell number, rep 1":1.24e6,"Kc cell number, rep 2":1.41e6,"S2R+ cell number, rep 1":1.33e6,"S2R+ cell number, rep 2":1.45e6}
